# Assay results from the supplement of paper PMC4604168 (melanoma cell lines).
# The other results are listed elsewhere or left out. Repeats are few or missing, and single values can be far off.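 Imaging used 1,536-well plates; nuclei positive for cleaved PARP by antibody were divided by total DNA-stained nuclei to yield the apoptosis fraction. Doses for screening kept most cells viable, and cell lines differ markedly in resting and induced cleaved-PARP levels.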
# Legend:
# Assay in all cases: cleaved PARP positive nuclei fraction relative to DMSO control; melanoma cells; higher = more apoptosis
# Settings in all cases: library dose: low library concentration; 72 h
# [1] = tested on: 501Mel
# [2] = tested on: A101D
# [3] = tested on: A2058
# [4] = tested on: A375
# [5] = tested on: C32
# [6] = tested on: CBRC013 (line from a melanoma biopsy)
# [7] = tested on: CBRC014 (line from a melanoma biopsy)
# [8] = tested on: CBRC016 (line from a melanoma biopsy)
# [9] = tested on: CBRC017 (line from a melanoma biopsy)
SMILES,cleaved PARP positive nuclei fraction [1],cleaved PARP positive nuclei fraction [2],cleaved PARP positive nuclei fraction [3],cleaved PARP positive nuclei fraction [4],cleaved PARP positive nuclei fraction [5],cleaved PARP positive nuclei fraction [6],cleaved PARP positive nuclei fraction [7],cleaved PARP positive nuclei fraction [8],cleaved PARP positive nuclei fraction [9]
"CC(C)(C)c1cnc(CSc2cnc(NC(=O)C3CCNCC3)s2)o1 + COc1ccc(-c2ccc3c(N4CCOCC4)nc(N4C[C@@H](C)O[C@@H](C)C4)nc3n2)cc1CO [KU0063794] (first compound 0.01 µM, partner dose 0.02 µM)",94.8%,165%,77%,296%,105%,118%,82.4%,65.3%,75.3%
"O=C(Nc1cccc(Cl)c1)Nc1ncc(CCNc2ncnc3ccsc23)s1 + COC(=O)c1sccc1S(=O)(=O)Nc1ccc(Nc2ccccc2)cc1OC [GSK0660] (first compound 0.0008 µM, partner dose 1 µM)",114%,58.4%,79.1%,38.3%,46.5%,88.2%,103%,22.4%,77.5%
"O=C(Nc1cccc(Cl)c1)Nc1ncc(CCNc2ncnc3ccsc23)s1 + c1cc(-c2cnn3cc(-c4ccc(OCCN5CCCCC5)cc4)cnc23)ccn1 [Dorsomorphin] (first compound 0.0008 µM, partner dose 0.4 µM)",133%,59.1%,69%,89.5%,82.7%,63.7%,103%,52.9%,86.2%
"C[C@]1(c2nc3c(C(N)=O)cccc3[nH]2)CCCN1 [Veliparib] + COc1ccc(COc2ccc(Cc3cnc(N)nc3N)cc2OC)cc1 [GW2580] (first compound 1.4 µM, partner dose 1 µM)",69%,37.6%,74.6%,28.6%,208%,57.8%,116%,65.5%,81.3%
"Cn1cncc1[C@@](N)(c1ccc(Cl)cc1)c1ccc2c(c1)c(-c1cccc(Cl)c1)cc(=O)n2C [tipifarnib] + N#Cc1c(O)c2c(-c3ccc(-c4ccccc4O)cc3)csc2[nH]c1=O [A769662] (first compound 0.01 µM, partner dose 2 µM)",57.4%,66.2%,48.4%,158%,122%,181%,86.8%,115%,99%
"Cn1cncc1[C@@](N)(c1ccc(Cl)cc1)c1ccc2c(c1)c(-c1cccc(Cl)c1)cc(=O)n2C [tipifarnib] + COc1cc2ncnc(Nc3ccc(Oc4ccccc4)cc3)c2cc1OC [SrcI1] (first compound 0.01 µM, partner dose 2 µM)",266%,168%,116%,156%,92.9%,99.2%,111%,57.5%,89.8%
"OCCn1cc(-c2cnc3nnn(Cc4ccc5ncccc5c4)c3n2)cn1 + CC(C)CCN1c2nc(Nc3cc(F)c(O)c(F)c3)ncc2N(C)C(=O)C1C [BID1870] (first compound 1 µM, partner dose 0.2 µM)",77.3%,247%,28.5%,65.3%,150%,88.8%,82.2%,85.6%,122%
"CC1(C)NC(=O)N(c2ccc([N+](=O)[O-])c(C(F)(F)F)c2)C1=O [nilutamide] + Cc1cc([N+](=O)[O-])ccc1NS(=O)(=O)c1cc(Cl)ccc1Cl [FH535] (first compound 1 µM, partner dose 1 µM)",41.7%,134%,57.5%,117%,103%,180%,141%,1040%,251%
"O=C(CCCCCCC(=O)Nc1ccccc1)NO [vorinostat] + COc1ccc2c(c1)CCC1C2CCC2(C)C(NCCCCCCN3C(=O)C=CC3=O)CCC12 [U73122] (first compound 0.08 µM, partner dose 0.4 µM)",77.1%,128%,63.3%,25.4%,124%,68.3%,106%,128%,97.7%
"COCC[n+]1c2c(n(Cc3cnccn3)c1C)C(=O)c1ccccc1C2=O + c1cc(-c2cnn3cc(-c4ccc(OCCN5CCCCC5)cc4)cnc23)ccn1 [Dorsomorphin] (first compound 0.0004 µM, partner dose 0.4 µM)",143%,118%,818%,577%,207%,121%,110%,40.1%,91.1%
"Cc1cc(N2CCOCC2)cc2[nH]c(-c3c(NC[C@@H](O)c4cccc(Cl)c4)cc[nH]c3=O)nc12 + Cc1cc([N+](=O)[O-])ccc1NS(=O)(=O)c1cc(Cl)ccc1Cl [FH535] (first compound 0.2 µM, partner dose 1 µM)",103%,231%,95.1%,224%,47.2%,199%,148%,157%,153%
"C=CCn1c(=O)c2cnc(Nc3ccc(N4CCN(C)CC4)cc3)nc2n1-c1cccc(C(C)(C)O)n1 + COc1cc(N2CCC(N3CCN(C)CC3)CC2)ccc1Nc1ncc(Cl)c(Nc2ccccc2S(=O)(=O)C(C)C)n1 [NVP-TAE684] (first compound 0.02 µM, partner dose 0.08 µM)",79%,152%,116%,326%,156%,134%,118%,85.3%,92.4%
"CC1(C)NC(=O)N(c2ccc([N+](=O)[O-])c(C(F)(F)F)c2)C1=O [nilutamide] + O=C(Nc1ccccc1)c1cc([N+](=O)[O-])ccc1Cl [GW9662] (first compound 1 µM, partner dose 2 µM)",87.7%,198%,258%,155%,123%,95.3%,103%,137%,43.2%
"C[C@@H]1CCN(C(=O)CC#N)C[C@@H]1N(C)c1ncnc2[nH]ccc12 + COc1ccc2c(c1)CCC1C2CCC2(C)C(NCCCCCCN3C(=O)C=CC3=O)CCC12 [U73122] (first compound 1 µM, partner dose 0.4 µM)",87.3%,84.3%,85.3%,107%,147%,157%,107%,87%,87.4%
"C#Cc1cccc(Nc2ncnc3cc(OCCOC)c(OCCOC)cc23)c1 [erlotinib] + Oc1cc(-c2nc(-c3ccccc3)[nH]c2-c2ccncc2)ccc1Cl [L779450] (first compound 0.8 µM, partner dose 0.2 µM)",87.3%,119%,65.1%,396%,52.2%,102%,92.5%,95.5%,72.7%
"COCC[n+]1c2c(n(Cc3cnccn3)c1C)C(=O)c1ccccc1C2=O + O=c1cc(-c2cccc3c2Sc2ccccc2S3)oc(N2CCOCC2)c1 [KU55933] (first compound 0.0004 µM, partner dose 1 µM)",92.8%,109%,397%,141%,85.7%,34.4%,186%,88.9%,93.9%
"COc1cc(Nc2ncc(F)c(Nc3ccc4c(n3)NC(=O)C(C)(C)O4)n2)cc(OC)c1OC [Tamatinib] + Cc1cc([N+](=O)[O-])ccc1NS(=O)(=O)c1cc(Cl)ccc1Cl [FH535] (first compound 0.4 µM, partner dose 1 µM)",108%,124%,133%,157%,99.3%,411%,211%,433%,332%
"CC1(C)NC(=O)N(c2ccc([N+](=O)[O-])c(C(F)(F)F)c2)C1=O [nilutamide] + O=C(O)C(=O)Nc1sc2c(c1C(=O)O)CCNC2 [TCS401] (first compound 1 µM, partner dose 1.66667 µM)",68.7%,223%,190%,124%,115%,96.2%,83.6%,84.3%,71%
"Cc1nc(Nc2ncc(C(=O)Nc3c(C)cccc3Cl)s2)cc(N2CCN(CCO)CC2)n1 [dasatanib] + Oc1nc(-c2ccc(C(F)(F)F)cc2)nc2c1CSCC2 [XAV939] (first compound 0.004 µM, partner dose 2 µM)",72.5%,71.1%,79.8%,166%,108%,37.9%,118%,108%,79.6%
"Cc1cc(N2CCOCC2)cc2[nH]c(-c3c(NC[C@@H](O)c4cccc(Cl)c4)cc[nH]c3=O)nc12 + CCCCCCCCCCCC1=C(O)C(=O)C=C(O)C1=O [Embelin] (first compound 0.2 µM, partner dose 1.2 µM)",86.2%,165%,50.6%,82.9%,106%,273%,85.9%,127%,83.4%
"C[C@@H]1CCN(C(=O)CC#N)C[C@@H]1N(C)c1ncnc2[nH]ccc12 + COc1cc2ncnc(Nc3ccc(Oc4ccccc4)cc3)c2cc1OC [SrcI1] (first compound 1 µM, partner dose 2 µM)",32.7%,195%,134%,79.8%,65.2%,66%,113%,99%,101%
"CC1(C)NC(=O)N(c2ccc([N+](=O)[O-])c(C(F)(F)F)c2)C1=O [nilutamide] + O=S(=O)(c1ccccc1)N(CC(F)(F)F)c1ccc(C(O)(C(F)(F)F)C(F)(F)F)cc1 [T0901317] (first compound 1 µM, partner dose 1.4 µM)",81.1%,124%,76.3%,407%,207%,124%,115%,76%,88.2%
"COc1cc(Nc2ncc(F)c(Nc3ccc4c(n3)NC(=O)C(C)(C)O4)n2)cc(OC)c1OC [Tamatinib] + Cn1cc(/C=C2\C(=O)Nc3cccnc32)c2ccccc21 [GW441756] (first compound 0.4 µM, partner dose 0.4 µM)",81.1%,243%,100%,144%,61.3%,155%,101%,21.4%,80.1%
"C[C@@H]1CCN(C(=O)CC#N)C[C@@H]1N(C)c1ncnc2[nH]ccc12 + Cc1cc([N+](=O)[O-])ccc1NS(=O)(=O)c1cc(Cl)ccc1Cl [FH535] (first compound 1 µM, partner dose 1 µM)",75.3%,351%,85.6%,140%,44%,276%,295%,3030%,517%

# Quoted from the results shown (5 entries):
SMILES,cleaved PARP positive nuclei fraction [1],cleaved PARP positive nuclei fraction [2],cleaved PARP positive nuclei fraction [3],cleaved PARP positive nuclei fraction [4],cleaved PARP positive nuclei fraction [5],cleaved PARP positive nuclei fraction [6],cleaved PARP positive nuclei fraction [7],cleaved PARP positive nuclei fraction [8],cleaved PARP positive nuclei fraction [9]
"COCC[n+]1c2c(n(Cc3cnccn3)c1C)C(=O)c1ccccc1C2=O + c1cc(-c2cnn3cc(-c4ccc(OCCN5CCCCC5)cc4)cnc23)ccn1 [Dorsomorphin] (first compound 0.0004 µM, partner dose 0.4 µM)",143%,118%,818%,577%,207%,121%,110%,40.1%,91.1%
"Cc1cc(N2CCOCC2)cc2[nH]c(-c3c(NC[C@@H](O)c4cccc(Cl)c4)cc[nH]c3=O)nc12 + Cc1cc([N+](=O)[O-])ccc1NS(=O)(=O)c1cc(Cl)ccc1Cl [FH535] (first compound 0.2 µM, partner dose 1 µM)",103%,231%,95.1%,224%,47.2%,199%,148%,157%,153%
"C=CCn1c(=O)c2cnc(Nc3ccc(N4CCN(C)CC4)cc3)nc2n1-c1cccc(C(C)(C)O)n1 + COc1cc(N2CCC(N3CCN(C)CC3)CC2)ccc1Nc1ncc(Cl)c(Nc2ccccc2S(=O)(=O)C(C)C)n1 [NVP-TAE684] (first compound 0.02 µM, partner dose 0.08 µM)",79%,152%,116%,326%,156%,134%,118%,85.3%,92.4%
"CC1(C)NC(=O)N(c2ccc([N+](=O)[O-])c(C(F)(F)F)c2)C1=O [nilutamide] + O=C(Nc1ccccc1)c1cc([N+](=O)[O-])ccc1Cl [GW9662] (first compound 1 µM, partner dose 2 µM)",87.7%,198%,258%,155%,123%,95.3%,103%,137%,43.2%
"C[C@@H]1CCN(C(=O)CC#N)C[C@@H]1N(C)c1ncnc2[nH]ccc12 + COc1ccc2c(c1)CCC1C2CCC2(C)C(NCCCCCCN3C(=O)C=CC3=O)CCC12 [U73122] (first compound 1 µM, partner dose 0.4 µM)",87.3%,84.3%,85.3%,107%,147%,157%,107%,87%,87.4%
